Results are given in words; binding and its absence hold for the method and conditions named. Some binding calls cover weakened binding; strength is not graded here.
Key:
[1] = target: TIE-2 ligand 1 (TL1) (human) (UniProt Q15389); assay: quantitative cell-free binding assay (ELISA)
[2] = target: TIE-2 ligand 2 (TL2) (human) (UniProt O15123); assay: cell-free ELISA; ligand coated, receptorbody titrated, AP-tagged anti-human Fc detection
[3] = target: TIE-2 ligand 1 (TL1) (human) (UniProt Q15389); assay: as above

The chains behind the UniProt entries cited, without tags or fusion partners. Where a name states a change or a piece, a line headed by the entry shows the natural chain unless it says otherwise. A line that says so, or that is headed by a name, gives the form on record, which may keep a tag or linker.
UniProt Q15389: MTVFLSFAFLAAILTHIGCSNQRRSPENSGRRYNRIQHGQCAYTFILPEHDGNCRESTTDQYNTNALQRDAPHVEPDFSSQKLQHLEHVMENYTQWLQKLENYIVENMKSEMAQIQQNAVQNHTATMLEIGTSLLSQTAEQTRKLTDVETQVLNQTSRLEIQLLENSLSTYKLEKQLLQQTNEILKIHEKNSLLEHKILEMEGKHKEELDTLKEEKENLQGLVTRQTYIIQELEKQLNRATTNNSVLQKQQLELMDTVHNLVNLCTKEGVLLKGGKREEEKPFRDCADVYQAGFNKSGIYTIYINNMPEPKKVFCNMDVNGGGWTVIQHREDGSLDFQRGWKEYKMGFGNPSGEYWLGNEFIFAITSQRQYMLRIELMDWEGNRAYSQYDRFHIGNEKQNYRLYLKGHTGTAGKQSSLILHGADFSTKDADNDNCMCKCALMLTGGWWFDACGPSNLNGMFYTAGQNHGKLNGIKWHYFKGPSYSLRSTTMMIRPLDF
UniProt O15123: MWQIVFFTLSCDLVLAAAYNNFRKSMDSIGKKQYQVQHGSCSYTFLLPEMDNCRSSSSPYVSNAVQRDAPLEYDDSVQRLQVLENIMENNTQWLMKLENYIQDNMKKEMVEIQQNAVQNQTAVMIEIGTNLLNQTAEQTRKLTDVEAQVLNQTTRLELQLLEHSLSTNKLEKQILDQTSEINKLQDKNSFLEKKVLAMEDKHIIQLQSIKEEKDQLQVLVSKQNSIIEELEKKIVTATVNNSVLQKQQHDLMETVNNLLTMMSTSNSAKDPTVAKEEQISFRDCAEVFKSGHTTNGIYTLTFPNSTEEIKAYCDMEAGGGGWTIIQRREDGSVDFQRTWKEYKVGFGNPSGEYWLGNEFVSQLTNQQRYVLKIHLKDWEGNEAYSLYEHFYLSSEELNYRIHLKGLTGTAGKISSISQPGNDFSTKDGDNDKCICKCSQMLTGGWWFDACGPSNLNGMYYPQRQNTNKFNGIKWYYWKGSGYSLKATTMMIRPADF
TIE-2 receptorbody (r TIE-2 ecto/h IgG1 Fc) (A0ABK0L6J5, form named): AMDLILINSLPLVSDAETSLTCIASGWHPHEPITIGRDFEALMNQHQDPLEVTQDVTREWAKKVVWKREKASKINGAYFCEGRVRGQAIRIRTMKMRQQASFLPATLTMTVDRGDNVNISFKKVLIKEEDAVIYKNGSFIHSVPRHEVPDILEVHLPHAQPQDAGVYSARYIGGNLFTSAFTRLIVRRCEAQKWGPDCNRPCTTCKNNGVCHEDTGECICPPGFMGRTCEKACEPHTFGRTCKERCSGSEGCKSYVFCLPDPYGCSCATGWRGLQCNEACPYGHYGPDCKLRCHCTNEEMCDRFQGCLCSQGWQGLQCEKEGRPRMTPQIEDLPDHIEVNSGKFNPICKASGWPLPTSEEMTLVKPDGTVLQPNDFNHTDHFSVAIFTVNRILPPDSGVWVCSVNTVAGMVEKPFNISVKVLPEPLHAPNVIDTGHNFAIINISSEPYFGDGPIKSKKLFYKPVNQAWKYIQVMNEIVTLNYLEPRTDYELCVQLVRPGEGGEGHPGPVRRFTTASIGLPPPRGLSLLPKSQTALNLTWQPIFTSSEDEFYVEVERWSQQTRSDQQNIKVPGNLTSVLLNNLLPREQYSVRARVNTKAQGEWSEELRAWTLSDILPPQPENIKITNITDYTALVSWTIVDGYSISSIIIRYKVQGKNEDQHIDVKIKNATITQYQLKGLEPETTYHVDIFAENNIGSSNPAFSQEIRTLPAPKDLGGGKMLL

binding [1]: binds
binding [2]: binds
binding [3]: binds
Substance: TIE-2 receptorbody (r TIE-2 ecto/h IgG1 Fc) (from UniProt A0ABK0L6J5 19-740) (Fc fusion)
